Experimental data: patent publication US9731032B2, “Aptamers for tumor initiating cells” (THE CLEVELAND CLINIC FOUNDATION, priority 2013, dated 2017)
Some of these results come from one statement about several compounds together. Some compounds share one range, which may span the group rather than tell each member.

Tests used:
[1] = tested on: TICs; experiment: Determination of aptamer affinity for TICs; assay type: binding, human; settings: FITC-labeled aptamer, flow cytometry
[2] = tested on: GBM cells from GBM1 (08-387), GBM2 (4121), GBM4 (3691) xenografts; experiment: Cell proliferation assay (Cell-Titer) of aptamer-high vs aptamer-low GBM cells; assay type: cell-based, human; settings: Cy5-labeled aptamer sorting, three GBMs tested

B1: GACGAGCTAAGAACCTTTAGGAGTGGAAA (nucleic acid)
DNA: ATCCACGAGTGACGCAGCACAGAGTGGAAGACGAGCTAAGAACCTTTAGGAGTGGAAAAGATAGCTCATGGACACGGTGGCTTAGT
modifications: DNA, backbone and methylation of C not given here
notes: TIC-specific DNA aptamer
- dissociation constants (KD) of binding to TICs [1]: in the nM range

B2: CCGTAGCTACGACGGAGGAAACTATGTTA (nucleic acid)
DNA: ATCCACGAGTGACGCAGCATGTTTAGGAAACCGTAGCTACGACGGAGGAAACTATGTTAAACATCCCCATGGACACGGTGGCTTAGT
modifications: DNA, backbone and methylation of C not given here
notes: TIC-specific DNA aptamer
- dissociation constants (KD) of binding to TICs [1]: in the nM range
- enhancement in cell growth, aptamer-high vs aptamer-low cells [2]: 3 to 12 fold

B3: AAAGCTCCTTGGAATAGTCTAATACCGGA (nucleic acid)
DNA: ATCCACGAGTGACGCAGCACGAGCAACACAAAAGCTCCTTGGAATAGTCTAATACCGGAGCGAGAAAGCTGGACACGGTGGCTTAGT
modifications: listed as DNA, chemistry not given here
notes: TIC-specific DNA aptamer
- dissociation constants (KD) of binding to TICs [1]: in the nM range
- enhancement in cell growth, aptamer-high vs aptamer-low cells [2]: 3 to 12 fold

B4: TGTGTATAAAGGGGCGGTGAAAAGCGAAT (nucleic acid)
DNA: ATCCACGAGTGACGCAGCACAGTGATCAGTTGTGTATAAAGGGGCGGTGAAAAGCGAATTCCAGTCGACTGGACACGGTGGCTTAGT
modifications: listed as DNA, chemistry not given here
notes: TIC-specific DNA aptamer
- dissociation constants (KD) of binding to TICs [1]: in the nM range
- enhancement in cell growth, aptamer-high vs aptamer-low cells [2]: 3 to 12 fold

B5: AGAACTGGCCTTACTACGAAAAGTCCTTG (nucleic acid)
DNA: ATCCACGAGTGACGCAGCACCGAGAGGAGAGAACTGGCCTTACTACGAAAAGTCCTTGGTTGCCAGGGGTGGACACGGTGGCTTAGT
modifications: listed as DNA, chemistry not given here
notes: TIC-specific DNA aptamer
- dissociation constants (KD) of binding to TICs [1]: in the nM range

B6: CCAAAAGAATAAGACAACTAGGTAAGCTTT (nucleic acid)
DNA: TCCACGAGTGACGCAGCACGTGAGTAAACCAAAAGAATAAGACAACTAGGTAAGCTTTGCAAGGGTAGTGGACACGGTGGCTTAGT
modifications: listed as DNA, chemistry not given here
notes: TIC-specific DNA aptamer
- dissociation constants (KD) of binding to TICs [1]: in the nM range
